This note sets out measurements from patent US20260001871A1, “TRIAZOLE DERIVATIVES AS MODULATORS OF MAS-RELATED G-PROTEIN RECEPTOR D” (ESCIENT PHARMACEUTICALS, INC., priority 2022, published 2026).

The chains behind the UniProt entries cited, without tags or fusion partners.
UniProt Q8TDS7, whole entry: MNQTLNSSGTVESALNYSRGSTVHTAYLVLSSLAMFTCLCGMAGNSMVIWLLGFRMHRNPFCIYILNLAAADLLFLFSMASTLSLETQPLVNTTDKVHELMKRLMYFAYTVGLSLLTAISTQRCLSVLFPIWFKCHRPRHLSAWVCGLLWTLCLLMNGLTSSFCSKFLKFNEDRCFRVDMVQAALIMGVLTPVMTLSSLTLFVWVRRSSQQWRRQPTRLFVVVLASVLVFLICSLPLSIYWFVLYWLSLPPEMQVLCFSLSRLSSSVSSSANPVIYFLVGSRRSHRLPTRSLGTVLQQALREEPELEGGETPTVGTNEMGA

Structures were worked out from names or drawings and are uncertain.

In the experiment the target is human MRGPRD (Homo sapiens, UniProt Q8TDS7). In words: MRGPRD antagonist activity, IP-One HTRF assay in CHO cells stably expressing human MRGPRD (versus 100 μM β-Alanine agonist). The note with it: read-out: mRGPRD Antagonist Activity. The method, then: Chinese Hamster Ovary (CHO) cells stably expressing human MRGPRD (Eurofins, San Diego CA) were plated in a 384-well plate at 20,000 cells per well in 12 μL of Optimem (Fisher Scientific 11-058-021). Plates were kept in the incubator at 37° C. overnight. Antagonists were solubilized at a concentration of 10 mM in DMSO, and the agonists were solubilized to stock concentrations of either 50 mM in H2O (β-Alanine) or 10 mM in DMSO (all others) and then diluted in assay buffer (final concentrations of 5.7 mM Tris-HCl, 43 mM NaCl, 50 mM LiCl, pH=8). The concentration of DMSO was normalized across the plate. Antagonists were added to the plate using a Tecan D300 Digital Dispenser at nanoliter/picoliter volumes and 2 μL of agonists in assay buffer were added to each well for a final assay volume of 14 μL. Plates were covered and incubated for 1 h at 37° C. and then for 1 h at room temperature. IP-1 standards and HTRF detection reagents were added according to an IP-One—Gq Kit purchased from Cisbio (part number 621PAPEJ) and incubated in the dark for 1 h at room temperature. Assay plates were read on either a Molecular Devices SpectraMax iD5 plate reader or a BMG ClarioStar plate reader. The HTRF ratio was calculated form the raw data and graphed using GraphPad Prism to calculate IC50 values. Data are expressed as average IC50 values and average percent antagonism calculated as a percent of the maximum efficacy response. For these studies, the variability of the data was assessed by determining the standard error of mean (SEM).
The activity ranges are denoted as follows: “+++++” denotes antagonist activity<100 nM; “++++” denotes antagonist activity between 100 and 500 nM; “+++” denotes activity between 500 and 1000 nM; “++” denotes activity between 1000 and 3000 nM; and “+” denotes activity>3000 nM.
For orientation: In TR-FRET formats the signal depends on donor and acceptor labels being close together.
`Cn1cncc1-c1ccc(-n2nnc(C(=O)Nc3ccncc3)c2C2CC2)cc1`: the IC50 lay in the range of 500 to 1000 nM.

For the compound `COc1ncccc1C1(NC(=O)c2nnn(-c3ccc(-c4ccc(C#N)cc4)cc3)c2C2CC2)CC1`, the IC50 lay within 1000 to 3000 nM.

As to `O=C(Nc1ccncc1)c1nnn(-c2ccc(-c3cnn(CC4CC4)c3)cc2)c1C1CC1`, the IC50 lay within 100 to 500 nM.
